Measured values as given in paper PMC11445491.
Results are given in words; binding and its absence hold for the method and conditions named. In cells and extracts the contact can be indirect. Some entries that bind do so weakly or less than the wild type.

The chains behind the UniProt entries cited, without tags or fusion partners.
UniProt Q9Y572: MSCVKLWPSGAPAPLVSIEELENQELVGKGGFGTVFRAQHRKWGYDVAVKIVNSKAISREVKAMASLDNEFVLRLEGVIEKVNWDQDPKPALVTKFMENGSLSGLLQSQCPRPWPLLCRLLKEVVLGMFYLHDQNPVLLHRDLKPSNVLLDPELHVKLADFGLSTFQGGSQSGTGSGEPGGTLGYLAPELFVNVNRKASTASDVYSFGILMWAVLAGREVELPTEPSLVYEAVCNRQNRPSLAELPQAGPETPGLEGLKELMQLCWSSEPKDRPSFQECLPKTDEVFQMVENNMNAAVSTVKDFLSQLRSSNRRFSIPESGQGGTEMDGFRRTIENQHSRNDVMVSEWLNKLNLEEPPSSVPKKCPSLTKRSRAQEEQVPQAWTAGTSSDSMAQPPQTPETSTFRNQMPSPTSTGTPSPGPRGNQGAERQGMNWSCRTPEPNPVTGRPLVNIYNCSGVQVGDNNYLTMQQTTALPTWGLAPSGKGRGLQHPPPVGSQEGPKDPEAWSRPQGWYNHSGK
UniProt Q13546: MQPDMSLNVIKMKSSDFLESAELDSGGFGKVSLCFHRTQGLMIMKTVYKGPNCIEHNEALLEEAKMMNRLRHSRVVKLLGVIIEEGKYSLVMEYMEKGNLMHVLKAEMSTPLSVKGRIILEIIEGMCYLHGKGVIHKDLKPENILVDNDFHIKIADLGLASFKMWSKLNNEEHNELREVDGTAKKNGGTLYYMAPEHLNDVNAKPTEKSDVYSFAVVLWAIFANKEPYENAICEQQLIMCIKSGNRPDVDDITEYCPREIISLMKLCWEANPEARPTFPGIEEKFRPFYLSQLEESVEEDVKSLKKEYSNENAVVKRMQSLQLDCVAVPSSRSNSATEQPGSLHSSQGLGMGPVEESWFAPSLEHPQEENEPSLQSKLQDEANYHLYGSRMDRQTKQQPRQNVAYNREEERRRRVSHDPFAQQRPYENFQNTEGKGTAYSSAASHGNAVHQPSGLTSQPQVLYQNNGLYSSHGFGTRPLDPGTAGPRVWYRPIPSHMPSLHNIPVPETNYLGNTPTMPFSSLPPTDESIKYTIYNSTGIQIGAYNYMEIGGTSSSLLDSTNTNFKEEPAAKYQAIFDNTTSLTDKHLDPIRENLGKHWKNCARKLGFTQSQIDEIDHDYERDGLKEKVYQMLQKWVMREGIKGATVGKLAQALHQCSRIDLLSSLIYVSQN

Target: RIPK3, endogenous (human (endogenous in HT-29)) (UniProt Q9Y572)
Test: co-IP; HT-29 cells, endogenous necrosome; T/Bi/Z for 3 h with or without 20 μM erlotinib or gefitinib; anti-RIPK3 antibodies and protein G agarose

In the case of “receptor interacting protein kinase 1 (RIPK1), endogenous (from UniProt Q13546 1-671)”, the binding is reported as “binds”.
